PubChem BioAssay AID1259254 | NCATS | 2017
This is an unselected part of about 59,000 reagents. In the full data, about 1,550 (2.6%) are marked active. 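G2 share is only a proxy for re-replication; each gene was hit by three separate siRNAs, and active genes were retested.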 Reagents against one gene are numbered here. Not all columns of the deposit are shown. Not stated in the record: the amount of reagent.

Aim: 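Genome-wide screen for genes that prevent DNA re-replication in cancer cells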 (primary screen)
System: human HCT116 colorectal cancer cells
Reagents: single siRNA against human genes
Time to read-out: 3 days
Measurement: 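Imaged Hoechst DNA stain sorts each cell into a cycle phase by DNA amount; per plate, G2 fraction set to 0% for non-targeting and 100% for GMNN siRNA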
Reading the numbers: G2 robust z-score: higher = more G2 cells, more excess DNA replication
Call rule: 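An siRNA counts as active if its G2 robust z-score lies at least 5 MADs above the screen median; here such calls match roughly 38% of GMNN control or more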

target	siRNA no.	G2 robust z-score	Call
SLC2A4RG (GeneID 56731)	1	1.27	inactive
SLC2A4RG (GeneID 56731)	2	-0.746	inactive
SLC2A4RG (GeneID 56731)	3	-0.729	inactive
CARMIL3 (GeneID 90668)	1	-0.22	inactive
CARMIL3 (GeneID 90668)	2	-0.793	inactive
CARMIL3 (GeneID 90668)	3	2	inactive
LRCH2 (GeneID 57631)	1	-0.218	inactive
LRCH2 (GeneID 57631)	2	-0.27	inactive
LRCH2 (GeneID 57631)	3	-0.458	inactive
KIAA1755 (GeneID 85449)	1	-0.583	inactive
KIAA1755 (GeneID 85449)	2	-0.958	inactive
KIAA1755 (GeneID 85449)	3	-0.527	inactive
MARK3 (GeneID 4140)	1	-1.49	inactive
MARK3 (GeneID 4140)	2	-0.454	inactive
MARK3 (GeneID 4140)	3	-0.297	inactive
ZNF474 (GeneID 133923)	1	0.982	inactive
ZNF474 (GeneID 133923)	2	-0.805	inactive
ZNF474 (GeneID 133923)	3	-0.862	inactive
ABL2 (GeneID 27)	1	1.22	inactive
ABL2 (GeneID 27)	2	0.873	inactive
ABL2 (GeneID 27)	3	-0.954	inactive
RRP12 (GeneID 23223)	1	0.143	inactive
RRP12 (GeneID 23223)	2	-0.537	inactive
RRP12 (GeneID 23223)	3	-0.401	inactive
RAB11FIP2 (GeneID 22841)	1	-0.209	inactive
RAB11FIP2 (GeneID 22841)	2	1.23	inactive
RAB11FIP2 (GeneID 22841)	3	1.32	inactive
SYT14P1 (GeneID 401135)	1	2.63	inactive
SYT14P1 (GeneID 401135)	2	-0.485	inactive
SYT14P1 (GeneID 401135)	3	-0.632	inactive
ZNF891 (GeneID 101060200)	1	3.59	inactive
ZNF891 (GeneID 101060200)	2	-0.229	inactive
ZNF891 (GeneID 101060200)	3	-0.456	inactive
CNBP (GeneID 7555)	1	-1.42	inactive
CNBP (GeneID 7555)	2	3.07	inactive
CNBP (GeneID 7555)	3	0.908	inactive
TRIM71 (GeneID 131405)	1	0.02	inactive
TRIM71 (GeneID 131405)	2	0.228	inactive
TRIM71 (GeneID 131405)	3	0.784	inactive
SAMD4A-AS1 (GeneID 729451)	1	3.8	inactive
SAMD4A-AS1 (GeneID 729451)	2	1.24	inactive
SAMD4A-AS1 (GeneID 729451)	3	1.02	inactive
R3HDM2 (GeneID 22864)	1	7.94	active
R3HDM2 (GeneID 22864)	2	1.82	inactive
R3HDM2 (GeneID 22864)	3	-0.401	inactive
SLC71A2 (GeneID 84641)	1	-0.545	inactive
SLC71A2 (GeneID 84641)	2	0.425	inactive
SLC71A2 (GeneID 84641)	3	3.47	inactive

A stretch of the results above, as a working copy:
target	siRNA no.	G2 robust z-score	Call
RAB11FIP2 (GeneID 22841)	1	-0.209	inactive
RAB11FIP2 (GeneID 22841)	2	1.23	inactive
RAB11FIP2 (GeneID 22841)	3	1.32	inactive
SYT14P1 (GeneID 401135)	1	2.63	inactive
SYT14P1 (GeneID 401135)	2	-0.485	inactive
SYT14P1 (GeneID 401135)	3	-0.632	inactive
ZNF891 (GeneID 101060200)	1	3.59	inactive
ZNF891 (GeneID 101060200)	2	-0.229	inactive
